For the assay, the target named is GST-TβRI. Particulars: read-out: IC50 GST-TβRI in vivo; in vivo (cells).

The source of these data is patent US20050136043A1, “TGFbeta signaling inhibitors” (Ludwig Institute for Cancer Research, priority 2003, published 2005).

In the case of `C[S+]([O-])c1ccc(-c2nc(-c3ccncc3)c(-c3ccc(F)cc3)[nH]2)cc1` (stereo not shown) [SB203580], the 50% inhibitory concentration (IC50) is 10 µM.
